According to patent US11889833B2, “Protoporphyrinogen oxidase inhibitors” (Enko Chem, Inc., priority 2022, dated 2024):
Some entries share one result that the patent states for a list of compounds.

molecular target: T1, Amaranthus tuberculatum Protoporphyrinogen Oxidase (AmPPO) (Amaranthus tuberculatus, UniProt Q0NZW9); test: PPO in vitro assay (AmPPO); format: biochemical; settings: AmPPO enzyme, bound less than 100 nM
T1 construct: fused on or other part: C-terminal His tag (pET28b)
T1 sequence (Q0NZW9 1-534): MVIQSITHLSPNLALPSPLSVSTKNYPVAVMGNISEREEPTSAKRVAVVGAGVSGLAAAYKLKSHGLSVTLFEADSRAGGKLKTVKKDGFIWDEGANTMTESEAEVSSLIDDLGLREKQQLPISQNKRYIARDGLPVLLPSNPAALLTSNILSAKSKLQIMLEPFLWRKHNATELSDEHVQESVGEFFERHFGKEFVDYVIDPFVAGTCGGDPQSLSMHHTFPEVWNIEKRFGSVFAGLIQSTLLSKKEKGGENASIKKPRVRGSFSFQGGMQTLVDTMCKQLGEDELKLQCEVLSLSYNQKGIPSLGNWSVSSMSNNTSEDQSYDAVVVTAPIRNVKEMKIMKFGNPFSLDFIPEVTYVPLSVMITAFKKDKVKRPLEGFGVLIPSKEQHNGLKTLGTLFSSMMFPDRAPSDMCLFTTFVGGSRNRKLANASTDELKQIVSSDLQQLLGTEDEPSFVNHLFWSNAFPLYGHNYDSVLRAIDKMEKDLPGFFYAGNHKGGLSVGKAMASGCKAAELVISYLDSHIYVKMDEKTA

Compound | IC50 [nM]
CC(=O)NS(=O)(=O)c1cc(-c2c(F)cc(F)c(F)c2F)c(F)cc1Cl [Compound 27, N-((4-chloro-2′,3′,4′,6,6′-pentafluoro-[1,1′-biphenyl]-3-yl)sulfonyl)acetamide] | < 100
C[C@H](Sc1cc(-c2c(F)c(F)c(F)c(F)c2F)c(F)cc1Cl)C(=O)NCCC(=O)O [Compound 7, (S)-3-(2-((4-chloro-2′,3′,4′,5′,6,6′-hexafluoro-[1,1′-biphenyl]-3-yl)thio)propanamido)propanoic acid] | < 100
C=C(C)C(=O)OCCOC(=O)[C@H](C)Sc1cc(-c2c(F)c(F)c(F)c(F)c2F)c(F)cc1Cl [Compound 13, (S)-2-((2-((4-chloro-2′,3′,4′,5′,6,6′-hexafluoro-[1,1′-biphenyl]-3-yl)thio)propanoyl)oxy)ethyl methacrylate] | < 100
COC(=O)[C@@H]1CCCN1C(=O)[C@H](C)Sc1cc(-c2c(F)c(F)c(F)c(F)c2F)c(F)cc1Cl [Compound 9, methyl ((S)-2-((4-chloro-2′,3′,4′,5′,6,6′-hexafluoro-[1,1′-biphenyl]-3-yl)thio)propanoyl)-L -prolinate] | < 100
C[C@@H](Sc1cc(-c2c(F)c(F)c(F)c(F)c2F)c(F)cc1Cl)C(=O)NCCC(=O)O [Compound 8, (R)-3-(2-((4-chloro-2′,3′,4′,5′,6,6′-hexafluoro-[1,1′-biphenyl]-3-yl)thio)propanamido)propanoic acid] | < 100
C=CCN(C(=O)CC)S(=O)(=O)c1cc(-c2c(F)cc(F)c(F)c2F)c(F)cc1Cl [Compound 74, N-allyl-N-((4-chloro-2′,3′,4′,6,6′-pentafluoro-[1,1′-biphenyl]-3-yl)sulfonyl)propionamide] | < 100
O=C(Cc1cccc(Cl)c1)NS(=O)(=O)c1cc(-c2c(F)cc(F)c(F)c2F)c(F)cc1Cl [Compound 44, N-((4-chloro-2′,3′,4′,6,6′-pentafluoro-[1,1′-biphenyl]-3-yl)sulfonyl)-2-(3-chlorophenyl)acetamide] | < 100
CN(C)C(=O)NS(=O)(=O)c1cc(-c2c(F)c(F)c(F)c(F)c2F)c(F)cc1Cl [Compound 16, 4-chloro-N-(dimethylcarbamoyl)-2′,3′,4′,5′,6,6′-hexafluoro-[1,1′-biphenyl]-3-sulfonamide] | < 100
CC(=O)CS(=O)(=O)c1cc(-c2c(F)cc(F)c(F)c2F)c(F)cc1Cl [Compound 78, 1-((4-chloro-2′,3′,4′,6,6′-pentafluoro-[1,1′-biphenyl]-3-yl)sulfonyl)propan-2-one] | < 100
O=C(NS(=O)(=O)c1cc(-c2c(F)cc(F)c(F)c2F)c(F)cc1Cl)N1CCCCC1 [Compound 62, N-((4-chloro-2′,3′,4′,6,6′-pentafluoro-[1,1′-biphenyl]-3-yl)sulfonyl)piperidine-1-carboxamide] | < 100
O=C(NS(=O)(=O)c1cc(-c2c(F)cc(F)c(F)c2F)c(F)cc1Cl)c1cccc(Cl)c1 [Compound 32, 3-chloro-N-((4-chloro-2′,3′,4′,6,6′-pentafluoro-[1,1′-biphenyl]-3-yl)sulfonyl)benzamide] | < 100
CCC(=O)NS(=O)(=O)c1cc(-c2c(F)c(F)c(F)c(F)c2F)c(F)cc1Cl [Compound 18, N-((4-chloro-2′,3′,4′,5′,6,6′-hexafluoro-[1,1′-biphenyl]-3-yl)sulfonyl)propionamide] | < 100
CONS(=O)(=O)c1cc(-c2c(F)cc(F)c(F)c2F)c(F)cc1Cl [Compound 73, 4-chloro-2′,3′,4′,6,6′-pentafluoro-N-methoxy-[1,1′-biphenyl]-3-sulfonamide] | < 100
O=C(NS(=O)(=O)c1cc(-c2c(F)c(F)c(F)c(F)c2F)c(F)cc1Cl)c1ccccc1 [Compound 23, N-((4-chloro-2′,3′,4′,5′,6,6′-hexafluoro-[1,1′-biphenyl]-3-yl)sulfonyl)benzamide] | < 100
O=C(CO)NS(=O)(=O)c1cc(-c2c(F)cc(F)c(F)c2F)c(F)cc1Cl [Compound 43, N-((4-chloro-2′,3′,4′,6,6′-pentafluoro-[1,1′-biphenyl]-3-yl)sulfonyl)-2-hydroxyacetamide] | < 100
CCOC(=O)NS(=O)(=O)c1cc(-c2c(F)cc(F)c(F)c2F)c(F)cc1Cl [Compound 34, ethyl ((4-chloro-2′,3′,4′,6,6′-pentafluoro-[1,1′-biphenyl]-3-yl)sulfonyl)carbamate] | < 100

Compound | IC50 [nM]
O=C(NS(=O)(=O)c1cc(-c2c(F)cc(F)c(F)c2F)c(F)cc1Cl)C1CC1 [Compound 60, N-((4-chloro-2′,3′,4′,6,6′-pentafluoro-[1,1′-biphenyl]-3-yl)sulfonyl)cyclopropanecarboxamide] | < 100
CCC(=O)CS(=O)(=O)c1cc(-c2c(F)cc(F)c(F)c2F)c(F)cc1Cl [Compound 79] | < 100
CCC(=O)NS(=O)(=O)c1nc(-c2c(F)cc(F)c(F)c2F)c(F)cc1Cl [Compound 71, N-((3-chloro-5-fluoro-6-(2,3,4,6-tetrafluorophenyl)pyridin-2-yl)sulfonyl)propionamide] | < 100
CC(C)(C)C(=O)NS(=O)(=O)c1cc(-c2c(F)cc(F)c(F)c2F)c(F)cc1Cl [Compound 63, N-((4-chloro-2′,3′,4′,6,6′-pentafluoro-[1,1′-biphenyl]-3-yl)sulfonyl)pivalamide] | < 100
CC(=O)NS(=O)(=O)c1cc(-c2cc(F)c(F)c(F)c2F)c(F)cc1Cl [Compound 52, N-((4-chloro-2′,3′,4′,5′,6-pentafluoro-[1,1′-biphenyl]-3-yl)sulfonyl)acetamide] | < 100
COC(=O)[C@@H]1CCCN1C(=O)[C@@H](C)Sc1cc(-c2c(F)c(F)c(F)c(F)c2F)c(F)cc1Cl [Compound 10, methyl ((R)-2-((4-chloro-2′,3′,4′,5′,6,6′-hexafluoro-[1,1′-biphenyl]-3-yl)thio)propanoyl)-L-prolinate] | < 100
C[C@H](Sc1cc(-c2c(F)c(F)c(F)c(F)c2F)c(F)cc1Cl)C(=O)N1CCC[C@H]1C(=O)O [Compound 11, ((S)-2-((4-chloro-2′,3′,4′,5′,6,6′-hexafluoro-[1,1′-biphenyl]-3-yl)thio)propanoyl)-L-proline] | < 100
C[C@@H](Sc1cc(-c2c(F)c(F)c(F)c(F)c2F)c(F)cc1Cl)C(=O)O [Compound 4, (R)-2-((4-chloro-2′,3′,4′,5′,6,6′-hexafluoro-[1,1′-biphenyl]-3-yl)thio)propanoic acid] | < 100
COC(=O)NS(=O)(=O)c1cc(-c2c(F)c(F)c(F)c(F)c2F)c(F)cc1Cl [Compound 22, methyl ((4-chloro-2′,3′,4′,5′,6,6′-hexafluoro-[1,1′-biphenyl]-3-yl)sulfonyl)carbamate] | < 100
CCC(=O)N(OC)S(=O)(=O)c1cc(-c2c(F)cc(F)c(F)c2F)c(F)cc1Cl [Compound 76] | < 100
CC(C)CC(=O)NS(=O)(=O)c1cc(-c2c(F)cc(F)c(F)c2F)c(F)cc1Cl [Compound 65, N-((4-chloro-2′,3′,4′,6,6′-pentafluoro-[1,1′-biphenyl]-3-yl)sulfonyl)-3-methylbutanamide] | < 100
CCS(=O)(=O)NS(=O)(=O)c1cc(-c2c(F)cc(F)c(F)c2F)c(F)cc1Cl [Compound 49, 4-chloro-N-(ethylsulfonyl)-2′,3′,4′,6,6′-pentafluoro-[1,1′-biphenyl]-3-sulfonamide] | < 100
CC(=O)NS(=O)(=O)c1cc(-c2c(F)c(F)c(F)c(F)c2F)c(F)cc1Cl [Compound 17, N-((4-chloro-2′,3′,4′,5′,6,6′-hexafluoro-[1,1′-biphenyl]-3-yl)sulfonyl)acetamide] | < 100
O=C(Cc1ccccc1Cl)NS(=O)(=O)c1cc(-c2c(F)cc(F)c(F)c2F)c(F)cc1Cl [Compound 38, N-((4-chloro-2′,3′,4′,6,6′-pentafluoro-[1,1′-biphenyl]-3-yl)sulfonyl)-2-(2-chlorophenyl)acetamide] | < 100
C=C(C)C(=O)OCCOC(=O)[C@@H](C)Sc1cc(-c2c(F)c(F)c(F)c(F)c2F)c(F)cc1Cl [Compound 14, (R)-2-((2-((4-chloro-2′,3′,4′,5′,6,6′-hexafluoro-[1,1′-biphenyl]-3-yl)thio)propanoyl)oxy)-ethyl methacrylate] | < 100
O=C(Cc1ccc(Cl)cc1)NS(=O)(=O)c1cc(-c2c(F)cc(F)c(F)c2F)c(F)cc1Cl [Compound 29, N-((4-chloro-2′,3′,4′,6,6′-pentafluoro-[1,1′-biphenyl]-3-yl)sulfonyl)-2-(4-chlorophenyl)acetamide] | < 100

same assay, conditions: AmPPO enzyme, bound less than 1 μM

Compound | IC50 [nM]
O=C(NS(=O)(=O)c1cc(-c2c(F)cc(F)c(F)c2F)c(F)cc1Cl)C1CCS(=O)(=O)CC1 [Compound 40, N-((4-chloro-2′,3′,4′,6,6′-pentafluoro-[1,1′-biphenyl]-3-yl)sulfonyl)tetrahydro-2H-thiopyran-4-carboxamide 1,1-dioxide] | < 1000
CC(C)(C)OCC(=O)NS(=O)(=O)c1cc(-c2c(F)cc(F)c(F)c2F)c(F)cc1Cl [Compound 42, 2-(tert-butoxy)-N-((4-chloro-2′,3′,4′,6,6′-pentafluoro-[1,1′-biphenyl]-3-yl)sulfonyl)acetamide] | < 1000
O=C(NS(=O)(=O)c1cc(-c2c(F)cc(F)c(F)c2F)c(F)cc1Cl)N1CCS(=O)(=O)CC1 [Compound 57, N-((4-chloro-2′,3′,4′,6,6′-pentafluoro-[1,1′-biphenyl]-3-yl)sulfonyl)thiomorpholine-4-carboxamide 1,1-dioxide] | < 1000
